Reference: patent US20180153922A1
Results are given in words; binding and its absence hold for the method and conditions named. Binding seen in cells or lysates may run through a third protein. Some binding calls cover weakened binding; strength is not graded here.

The chains behind the UniProt entries cited, without tags or fusion partners.
UniProt P56477: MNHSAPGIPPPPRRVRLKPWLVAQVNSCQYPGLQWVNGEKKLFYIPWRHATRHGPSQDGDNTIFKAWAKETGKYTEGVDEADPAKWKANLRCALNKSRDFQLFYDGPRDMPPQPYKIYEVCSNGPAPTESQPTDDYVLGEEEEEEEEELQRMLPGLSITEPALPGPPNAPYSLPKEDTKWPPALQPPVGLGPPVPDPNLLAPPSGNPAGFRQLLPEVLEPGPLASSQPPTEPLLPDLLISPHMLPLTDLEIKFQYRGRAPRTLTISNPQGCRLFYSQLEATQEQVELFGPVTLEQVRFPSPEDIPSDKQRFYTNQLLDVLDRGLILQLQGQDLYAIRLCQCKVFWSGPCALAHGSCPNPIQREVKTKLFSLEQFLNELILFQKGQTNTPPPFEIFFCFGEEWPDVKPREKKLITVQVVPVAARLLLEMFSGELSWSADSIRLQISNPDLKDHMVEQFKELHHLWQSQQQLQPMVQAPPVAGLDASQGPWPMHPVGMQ
UniProt Q8C2K1: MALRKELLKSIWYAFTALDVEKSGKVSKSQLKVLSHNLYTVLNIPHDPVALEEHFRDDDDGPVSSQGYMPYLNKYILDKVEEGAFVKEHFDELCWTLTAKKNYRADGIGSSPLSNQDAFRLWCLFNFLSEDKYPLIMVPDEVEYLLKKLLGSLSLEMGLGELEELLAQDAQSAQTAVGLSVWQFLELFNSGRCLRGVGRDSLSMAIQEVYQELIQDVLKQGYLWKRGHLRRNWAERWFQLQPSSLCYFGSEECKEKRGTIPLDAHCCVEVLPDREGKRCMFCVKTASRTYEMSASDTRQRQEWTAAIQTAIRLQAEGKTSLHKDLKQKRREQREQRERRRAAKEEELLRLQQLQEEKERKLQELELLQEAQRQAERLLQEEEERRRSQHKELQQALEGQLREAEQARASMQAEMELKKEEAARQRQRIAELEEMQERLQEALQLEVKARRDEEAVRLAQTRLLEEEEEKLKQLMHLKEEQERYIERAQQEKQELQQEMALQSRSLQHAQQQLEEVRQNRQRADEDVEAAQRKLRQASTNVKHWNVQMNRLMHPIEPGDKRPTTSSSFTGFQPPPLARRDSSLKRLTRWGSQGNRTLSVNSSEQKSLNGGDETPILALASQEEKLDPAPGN
UniProt Q6A028: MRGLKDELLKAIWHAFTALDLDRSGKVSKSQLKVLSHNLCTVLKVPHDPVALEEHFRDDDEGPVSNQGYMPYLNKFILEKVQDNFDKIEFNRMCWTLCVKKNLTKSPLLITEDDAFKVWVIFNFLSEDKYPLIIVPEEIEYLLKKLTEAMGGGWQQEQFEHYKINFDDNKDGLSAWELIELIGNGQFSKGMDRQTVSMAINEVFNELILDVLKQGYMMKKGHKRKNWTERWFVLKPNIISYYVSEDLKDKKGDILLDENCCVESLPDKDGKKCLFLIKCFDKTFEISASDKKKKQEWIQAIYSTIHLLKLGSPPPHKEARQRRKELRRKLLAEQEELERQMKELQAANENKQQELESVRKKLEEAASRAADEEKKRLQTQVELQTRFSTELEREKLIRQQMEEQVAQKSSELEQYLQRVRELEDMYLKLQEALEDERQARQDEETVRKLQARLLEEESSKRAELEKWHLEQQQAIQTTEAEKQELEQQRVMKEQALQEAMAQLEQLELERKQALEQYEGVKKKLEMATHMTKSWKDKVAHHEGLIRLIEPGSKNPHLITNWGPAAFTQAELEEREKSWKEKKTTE

Experiments:
[1] = target: endogenous IRF5 (interferon regulatory factor 5) in mouse B cells (mouse) (UniProt P56477); experiment: co-immunoprecipitation with anti-IRF5 antibody from nuclear extracts of B cells, Western blot
[2] = target: endogenous IRF5 (interferon regulatory factor 5) in mouse B cells (mouse) (UniProt P56477); experiment: co-immunoprecipitation

Question: With “endogenous DEF6 in mouse B cells (from UniProt Q8C2K1 1-630)” as the substance, how does the binding [1] read?
Answer: The binding was “binds”.

Question: And the binding [2]?
Answer: The binding was “binds”.

Question: “endogenous SWAP-70 in mouse B cells (from UniProt Q6A028 1-585)” was tested. Which binding [1] did it give?
Answer: Its binding is “binds”.

Question: And the binding [2]?
Answer: Its binding is “binds”.
